Reference: patent US5643780

Test system: eIF-4E (eukaryotic initiation factor 4E, cap-binding protein)
Assay: EMSA
Details: m7Gppp cap at RNA 5' end, 0 C, purified recombinant protein, label: 32P on RNA, DNA:RNA hybrid
[1] = enhancement of eIF-4E:m7GpppRNA complex by antisense, range over three oligos, 1.2 uM eIF-4E, 40 mM HEPES pH 7.4, 100 mM KCl

Row | Sequence | binding result [1] | further results
1 | GAGCAGCUCCUCUGCUACUCAGA / CTCTGAGTAGCAGAGGAGCU [capped 23-mer RNA hybridized to ISIS 3251T (Tren)] |  | binding result (FITC at RNA 3' end, triethylene tetramine tethered to 3'-terminal oxidized U of antisense, decreased eIF-4E complexation vs same oligo without Tren): binds more weakly
2 | GAGCAGCUCCUCUGCUACUCAGA / CTCTGAGTAGCAGAGGAGCU [capped 23-mer RNA hybridized to ISIS 3251] |  | binding result (FITC at RNA 3' end, 3'-terminal ribo-U on antisense, reference complex without Tren): binds
3 | GAGCUCCUCUGCUACUCAGA / TCTGAGTAGCAGAGGAGCTCA | binds | 
4 | GAGCUCCUCUGCUACUCAGA / TCTGAGTAGCAGAGGAGCTCC | binds | 
5 | GAGCUCCUCUGCUACUCAGA / TCTGAGTAGCAGAGGAGCTCT | binds | 

For at least one entry, the source does not settle the construct or the ends of the probe. Weaker means in comparison with the reference protein, sequence or condition of that experiment.
